Experimental data from the supplement of paper PMC7411640.
Counter-ions that a name gives are not always drawn. Some of the results follow. This data set is noisy: repeats of one test often differ as much as different tests do.

System: MDA-MB-468
Assay: phospho-S6 immunofluorescence (DAPI-normalised), per-plate z-score; higher = higher phospho-S6 signal (less pathway suppression)
Details: 24 h
Experimental: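 GPCR-targeted compound library (MedChemExpress HY-L006) tested on MDA-MB-468 PTEN-null TNBC cells in 384-well plates at 0.1, 1 or 10 uM, combined with vehicle, GDC0941 450 nM or lapatinib 1 uM, for 24 h. Phospho-S6 (S240/244) immunofluorescence normalised to DAPI and expressed as a per-plate z-score; values are the mean of biological triplicates.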

[1] = compound 0.1 µM, co-treatment: GDC0941 450 nM
[2] = compound 0.1 µM, co-treatment: lapatinib 1 uM
[3] = compound 0.1 µM, co-treatment: vehicle
[4] = compound 1 µM, co-treatment: GDC0941 450 nM
[5] = compound 1 µM, co-treatment: lapatinib 1 uM
[6] = compound 1 µM, co-treatment: vehicle
[7] = compound 10 µM, co-treatment: GDC0941 450 nM
[8] = compound 10 µM, co-treatment: lapatinib 1 uM
[9] = compound 10 µM, co-treatment: vehicle

Row | SMILES | phospho-S6 immunofluorescence (z-score) [1] | phospho-S6 immunofluorescence (z-score) [2] | phospho-S6 immunofluorescence (z-score) [3] | phospho-S6 immunofluorescence (z-score) [4] | phospho-S6 immunofluorescence (z-score) [5] | phospho-S6 immunofluorescence (z-score) [6] | phospho-S6 immunofluorescence (z-score) [7] | phospho-S6 immunofluorescence (z-score) [8] | phospho-S6 immunofluorescence (z-score) [9]
1 | CC(=O)OCC(=O)[C@@]1(O)[C@H](C)C[C@H]2[C@@H]3CCC4=CC(=O)C=C[C@]4(C)[C@@]3(F)[C@@H](O)C[C@@]21C [Dexamethasone (acetate)] | -1.09 | 0.68 | 1.15 | -0.57 | 1.44 | 1.25 | 0.07 | 0.45 | 1.18
2 | NC(N)=Nc1nc(CSCCN/C=N/S(=O)(=O)c2ccc(Br)cc2)cs1 [Ebrotidine] | 0.73 | -0.3 | 0.14 | -0.89 | -0.64 | 0.12 | -4.2 | -3.36 | -1.7
3 | O=C(Nc1cc(Cl)cc(Cl)c1)[C@H]1CCCC[C@H]1C(=O)O | 0.34 | -0.84 | 0.75 | 0.22 | -0.22 | -1.13 | 0.83 | 0.12 | 0.42
4 | NCCc1c[nH]cn1 [Histamine (phosphate)] | -0.68 | 0.86 | -0.28 | 1.23 | -0.18 | -0.15 | -0.41 | -0.13 | 0.1
5 | CCCCC[C@H](O)/C=C/[C@@H]1[C@@H](C/C=C\CCCC(=O)O)[C@@H](O)C[C@H]1O [Dinoprost (tromethamine salt)] | 0.02 | -0.35 | 0.18 | 1.35 | -0.45 | 0.57 | -0.07 | -0.14 | 0.98
6 | CCCCc1nc(Cl)c(CO)n1Cc1ccc(-c2ccccc2-c2nnn[nH]2)cc1 [Losartan (potassium)] | 0.42 | 1.47 | 0.96 | 0.87 | 0.07 | 0.71 | 0.74 | 0.83 | 0.81
7 | C[C@H](CCC(=O)O)[C@H]1CC[C@H]2[C@@H]3CC[C@@H]4C[C@H](O)CC[C@]4(C)[C@H]3C[C@H](O)[C@]12C [Deoxycholic acid] | 0.35 | 0.38 | -0.06 | 0.24 | 0.15 | -0.22 | 0.02 | 0.6 | -0.17
8 | O=C(N[C@@H]1CC[C@@H](c2cccc(F)c2F)CN(CC(F)(F)F)C1=O)N1CCC(n2c(=O)[nH]c3ncccc32)CC1 | -0.51 | 0.42 | -0.58 | -0.66 | 0.86 | -0.01 | 0.18 | 0.53 | -0.42
9 | COC(=O)N(C)c1c(N)nc(-c2nn(Cc3ccccc3F)c3ncccc23)nc1N [Riociguat] | -1.04 | -0.85 | -0.85 | -1.06 | -0.1 | -0.74 | -0.84 | 0.03 | -0.56
10 | COC(=O)[C@H](c1ccccc1Cl)N1CCc2sccc2C1 [Clopidogrel (hydrogen sulfate)] | 0.51 | -0.73 | -0.82 | 0.41 | -0.02 | -0.45 | 0.58 | -1.03 | -0.92
11 | NC(=O)CC[C@H](N)C(=O)O [L-Glutamine] | 0.29 | -0.05 | -0.78 | 1.31 | -0.31 | 0.47 | -0.23 | -0.64 | -0.12
12 | COc1cc2c(cc1OC)-c1cc3ccc4c(c3c[n+]1CC2)OCO4 [Epiberberine (chloride)] | 1.14 | 0.5 | 0.24 | 1.14 | 0 | 0.8 | -0.39 | 0.22 | 1.66
13 | c1ccc(CC2=NCCN2)cc1 [Tolazoline (hydrochloride)] | 0.34 | 0.41 | 0.19 | 1.31 | 0.53 | 1 | 1.08 | 0.41 | 0.92
14 | Cc1cc2c(cc1CC(=O)c1sccc1S(=O)(=O)Nc1onc(C)c1Cl)OCO2 [Sitaxsentan (sodium)] | 1.67 | -0.48 | 0.05 | -0.01 | 0.62 | 0.22 | 0.35 | 0.35 | 0.45
15 | C[C@H]1CN(C[C@H](Cc2ccccc2)C(=O)NCC(=O)O)CC[C@@]1(C)c1cccc(O)c1 [Alvimopan (dihydrate)] | -1.14 | 0.12 | -1.88 | -1.42 | -0.34 | -1.67 | -0.22 | 0.49 | -0.86
16 | Cc1c(C(=O)NN2CCCCC2)nn(-c2ccc(Cl)cc2Cl)c1-c1ccc(I)cc1 | 0.26 | -0.61 | -0.13 | -1.15 | -0.27 | -0.48 | -1.91 | -1.68 | -2.82
17 | Clc1cccc(Cl)c1NC1=NCCN1 [Clonidine (hydrochloride)] | 1.25 | 0.19 | 0.71 | 0.13 | -0.49 | 0.67 | 0.37 | 0.75 | 1.03

Taken from above.
`COC(=O)[C@H](c1ccccc1Cl)N1CCc2sccc2C1` [Clopidogrel (hydrogen sulfate)] | phospho-S6 immunofluorescence (z-score) [5]: -0.02
`O=C(N[C@@H]1CC[C@@H](c2cccc(F)c2F)CN(CC(F)(F)F)C1=O)N1CCC(n2c(=O)[nH]c3ncccc32)CC1` | phospho-S6 immunofluorescence (z-score) [2]: 0.42
